Here are results for 33 targets from the supplement of paper PMC10849652.

Protein sequences, listed by entry. Tags and fused reporters are not part of them. Lines headed by an entry give the natural chain unless they say otherwise; changes in a name come on top.
UniProt Q9NPR2: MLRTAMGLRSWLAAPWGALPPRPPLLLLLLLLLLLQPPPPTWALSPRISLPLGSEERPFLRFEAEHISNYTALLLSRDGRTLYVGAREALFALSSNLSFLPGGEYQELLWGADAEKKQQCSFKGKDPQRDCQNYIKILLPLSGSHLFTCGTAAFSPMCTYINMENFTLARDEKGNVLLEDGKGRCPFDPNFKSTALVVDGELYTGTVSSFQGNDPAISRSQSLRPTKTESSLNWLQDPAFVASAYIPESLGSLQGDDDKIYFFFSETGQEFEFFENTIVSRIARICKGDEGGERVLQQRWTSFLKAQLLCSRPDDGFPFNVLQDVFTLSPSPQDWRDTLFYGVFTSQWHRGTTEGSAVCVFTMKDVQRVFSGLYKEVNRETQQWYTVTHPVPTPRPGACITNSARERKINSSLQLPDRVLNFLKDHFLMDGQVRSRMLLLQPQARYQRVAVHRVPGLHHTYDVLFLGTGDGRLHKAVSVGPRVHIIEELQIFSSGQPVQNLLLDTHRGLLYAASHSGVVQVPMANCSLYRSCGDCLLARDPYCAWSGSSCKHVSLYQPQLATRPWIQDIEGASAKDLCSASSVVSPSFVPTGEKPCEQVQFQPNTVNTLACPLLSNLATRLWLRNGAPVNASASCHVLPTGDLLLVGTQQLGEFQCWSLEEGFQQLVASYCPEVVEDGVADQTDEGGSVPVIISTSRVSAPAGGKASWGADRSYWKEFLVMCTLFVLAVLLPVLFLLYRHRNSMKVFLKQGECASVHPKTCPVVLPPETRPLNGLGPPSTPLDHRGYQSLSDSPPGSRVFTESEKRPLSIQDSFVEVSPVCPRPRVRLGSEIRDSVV
UniProt Q9BRK5: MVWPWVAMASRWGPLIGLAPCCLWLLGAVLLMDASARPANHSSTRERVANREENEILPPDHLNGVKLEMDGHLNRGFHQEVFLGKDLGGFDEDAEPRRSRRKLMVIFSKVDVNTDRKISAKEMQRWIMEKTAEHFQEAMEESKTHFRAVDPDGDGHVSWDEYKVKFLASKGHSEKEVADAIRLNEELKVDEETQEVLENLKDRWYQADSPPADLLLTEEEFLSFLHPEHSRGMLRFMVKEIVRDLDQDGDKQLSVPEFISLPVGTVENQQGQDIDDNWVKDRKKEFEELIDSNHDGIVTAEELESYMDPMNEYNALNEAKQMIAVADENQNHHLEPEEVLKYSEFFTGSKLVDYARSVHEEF
UniProt Q9BQE4, whole entry, looked up: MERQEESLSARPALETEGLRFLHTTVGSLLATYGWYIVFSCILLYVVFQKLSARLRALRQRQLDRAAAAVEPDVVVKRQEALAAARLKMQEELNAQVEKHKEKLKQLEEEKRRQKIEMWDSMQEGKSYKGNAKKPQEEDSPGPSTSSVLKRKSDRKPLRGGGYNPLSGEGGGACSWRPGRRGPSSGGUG
UniProt P53992: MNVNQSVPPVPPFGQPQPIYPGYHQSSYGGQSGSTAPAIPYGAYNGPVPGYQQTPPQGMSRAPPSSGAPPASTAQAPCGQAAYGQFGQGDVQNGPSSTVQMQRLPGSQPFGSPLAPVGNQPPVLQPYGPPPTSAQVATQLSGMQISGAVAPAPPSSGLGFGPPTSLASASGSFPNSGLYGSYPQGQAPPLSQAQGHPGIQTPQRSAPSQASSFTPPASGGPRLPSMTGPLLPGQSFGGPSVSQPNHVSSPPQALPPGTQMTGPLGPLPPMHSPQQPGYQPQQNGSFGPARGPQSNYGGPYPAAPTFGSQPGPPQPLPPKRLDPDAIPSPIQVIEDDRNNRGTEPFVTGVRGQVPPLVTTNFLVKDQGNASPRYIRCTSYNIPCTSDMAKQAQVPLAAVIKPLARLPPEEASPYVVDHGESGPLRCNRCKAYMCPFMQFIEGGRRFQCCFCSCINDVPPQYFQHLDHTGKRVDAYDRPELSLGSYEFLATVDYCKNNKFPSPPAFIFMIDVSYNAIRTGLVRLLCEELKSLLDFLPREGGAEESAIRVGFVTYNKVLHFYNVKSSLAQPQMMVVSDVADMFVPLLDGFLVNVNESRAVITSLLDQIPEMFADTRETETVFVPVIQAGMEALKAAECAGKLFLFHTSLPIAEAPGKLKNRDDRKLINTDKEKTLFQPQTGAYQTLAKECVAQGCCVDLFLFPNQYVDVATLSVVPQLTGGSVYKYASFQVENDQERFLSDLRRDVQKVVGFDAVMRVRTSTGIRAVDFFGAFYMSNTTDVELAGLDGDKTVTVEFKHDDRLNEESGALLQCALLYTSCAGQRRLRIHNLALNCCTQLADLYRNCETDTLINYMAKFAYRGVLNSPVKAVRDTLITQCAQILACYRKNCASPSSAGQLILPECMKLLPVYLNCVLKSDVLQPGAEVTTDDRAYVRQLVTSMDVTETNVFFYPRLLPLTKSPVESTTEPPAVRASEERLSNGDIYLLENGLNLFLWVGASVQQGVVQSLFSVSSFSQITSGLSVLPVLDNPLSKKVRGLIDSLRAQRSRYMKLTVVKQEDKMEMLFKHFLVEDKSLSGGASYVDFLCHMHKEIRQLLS
UniProt Q96GA7: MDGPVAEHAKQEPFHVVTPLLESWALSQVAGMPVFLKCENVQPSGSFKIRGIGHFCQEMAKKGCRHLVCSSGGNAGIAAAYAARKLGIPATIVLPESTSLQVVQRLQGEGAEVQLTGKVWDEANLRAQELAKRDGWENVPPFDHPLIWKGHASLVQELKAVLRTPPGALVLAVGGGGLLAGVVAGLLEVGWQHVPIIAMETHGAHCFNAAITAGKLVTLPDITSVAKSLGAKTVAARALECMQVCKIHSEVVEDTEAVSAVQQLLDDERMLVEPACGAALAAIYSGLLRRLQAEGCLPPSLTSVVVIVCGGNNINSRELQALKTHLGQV
UniProt Q9BW04: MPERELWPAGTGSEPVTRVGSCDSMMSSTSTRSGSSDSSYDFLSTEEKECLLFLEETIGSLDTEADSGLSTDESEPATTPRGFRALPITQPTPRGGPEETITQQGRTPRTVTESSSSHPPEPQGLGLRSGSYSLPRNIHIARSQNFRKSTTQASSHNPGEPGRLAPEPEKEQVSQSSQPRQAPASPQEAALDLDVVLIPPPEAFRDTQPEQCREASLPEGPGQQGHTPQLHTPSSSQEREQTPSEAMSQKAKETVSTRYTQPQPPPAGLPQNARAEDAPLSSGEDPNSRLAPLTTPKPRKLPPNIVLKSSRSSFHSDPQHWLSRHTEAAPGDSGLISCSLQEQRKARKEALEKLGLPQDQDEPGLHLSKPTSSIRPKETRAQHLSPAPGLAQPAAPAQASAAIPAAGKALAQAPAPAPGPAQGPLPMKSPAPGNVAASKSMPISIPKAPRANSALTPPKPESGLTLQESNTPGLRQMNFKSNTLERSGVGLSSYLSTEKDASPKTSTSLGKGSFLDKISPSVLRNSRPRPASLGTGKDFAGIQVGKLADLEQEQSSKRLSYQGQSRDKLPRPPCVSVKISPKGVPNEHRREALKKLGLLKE
UniProt Q9Y6B6: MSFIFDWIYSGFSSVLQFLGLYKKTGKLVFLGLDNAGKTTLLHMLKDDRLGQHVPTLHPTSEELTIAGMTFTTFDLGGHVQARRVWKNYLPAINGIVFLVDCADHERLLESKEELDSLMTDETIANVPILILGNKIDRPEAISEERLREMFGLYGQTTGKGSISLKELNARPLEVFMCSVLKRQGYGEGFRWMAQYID
UniProt Q9NSI8: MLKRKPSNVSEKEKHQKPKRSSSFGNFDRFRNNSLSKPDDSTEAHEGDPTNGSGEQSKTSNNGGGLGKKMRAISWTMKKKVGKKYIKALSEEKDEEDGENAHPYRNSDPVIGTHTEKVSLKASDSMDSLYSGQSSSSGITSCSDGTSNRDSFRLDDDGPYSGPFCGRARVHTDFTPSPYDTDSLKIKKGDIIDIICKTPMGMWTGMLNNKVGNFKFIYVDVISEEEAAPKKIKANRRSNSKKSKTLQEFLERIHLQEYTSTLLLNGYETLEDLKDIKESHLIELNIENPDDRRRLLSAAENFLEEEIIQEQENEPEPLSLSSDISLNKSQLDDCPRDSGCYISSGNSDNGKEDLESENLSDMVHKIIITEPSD
UniProt Q96KG9: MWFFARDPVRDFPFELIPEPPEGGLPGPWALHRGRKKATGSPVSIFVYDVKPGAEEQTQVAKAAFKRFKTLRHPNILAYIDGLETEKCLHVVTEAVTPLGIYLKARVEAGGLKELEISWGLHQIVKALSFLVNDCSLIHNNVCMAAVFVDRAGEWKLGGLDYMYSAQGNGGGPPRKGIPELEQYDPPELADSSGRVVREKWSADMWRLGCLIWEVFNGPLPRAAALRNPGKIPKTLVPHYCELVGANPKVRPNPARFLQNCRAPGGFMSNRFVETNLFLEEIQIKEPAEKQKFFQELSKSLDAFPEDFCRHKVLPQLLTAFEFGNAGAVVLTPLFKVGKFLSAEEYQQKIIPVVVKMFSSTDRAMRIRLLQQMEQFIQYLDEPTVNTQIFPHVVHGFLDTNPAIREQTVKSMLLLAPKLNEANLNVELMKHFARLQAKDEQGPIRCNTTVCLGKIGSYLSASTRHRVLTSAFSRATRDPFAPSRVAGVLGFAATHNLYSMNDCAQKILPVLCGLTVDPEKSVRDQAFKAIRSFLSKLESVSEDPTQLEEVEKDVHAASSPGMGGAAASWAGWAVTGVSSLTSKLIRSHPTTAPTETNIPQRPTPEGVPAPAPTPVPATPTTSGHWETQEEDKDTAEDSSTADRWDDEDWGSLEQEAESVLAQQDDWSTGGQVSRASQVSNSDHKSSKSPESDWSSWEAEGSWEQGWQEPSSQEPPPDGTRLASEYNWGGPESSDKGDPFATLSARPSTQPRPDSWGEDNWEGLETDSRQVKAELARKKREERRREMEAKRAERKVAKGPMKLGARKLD
UniProt O14828: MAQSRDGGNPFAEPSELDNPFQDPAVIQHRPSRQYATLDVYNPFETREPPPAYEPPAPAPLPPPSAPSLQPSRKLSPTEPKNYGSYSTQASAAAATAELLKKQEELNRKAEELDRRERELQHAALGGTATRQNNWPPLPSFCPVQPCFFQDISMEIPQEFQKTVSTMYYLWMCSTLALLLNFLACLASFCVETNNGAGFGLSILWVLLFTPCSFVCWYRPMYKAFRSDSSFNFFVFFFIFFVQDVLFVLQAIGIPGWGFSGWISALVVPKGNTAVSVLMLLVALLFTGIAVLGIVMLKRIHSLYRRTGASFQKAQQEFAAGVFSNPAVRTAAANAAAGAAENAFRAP
UniProt Q6UVJ0: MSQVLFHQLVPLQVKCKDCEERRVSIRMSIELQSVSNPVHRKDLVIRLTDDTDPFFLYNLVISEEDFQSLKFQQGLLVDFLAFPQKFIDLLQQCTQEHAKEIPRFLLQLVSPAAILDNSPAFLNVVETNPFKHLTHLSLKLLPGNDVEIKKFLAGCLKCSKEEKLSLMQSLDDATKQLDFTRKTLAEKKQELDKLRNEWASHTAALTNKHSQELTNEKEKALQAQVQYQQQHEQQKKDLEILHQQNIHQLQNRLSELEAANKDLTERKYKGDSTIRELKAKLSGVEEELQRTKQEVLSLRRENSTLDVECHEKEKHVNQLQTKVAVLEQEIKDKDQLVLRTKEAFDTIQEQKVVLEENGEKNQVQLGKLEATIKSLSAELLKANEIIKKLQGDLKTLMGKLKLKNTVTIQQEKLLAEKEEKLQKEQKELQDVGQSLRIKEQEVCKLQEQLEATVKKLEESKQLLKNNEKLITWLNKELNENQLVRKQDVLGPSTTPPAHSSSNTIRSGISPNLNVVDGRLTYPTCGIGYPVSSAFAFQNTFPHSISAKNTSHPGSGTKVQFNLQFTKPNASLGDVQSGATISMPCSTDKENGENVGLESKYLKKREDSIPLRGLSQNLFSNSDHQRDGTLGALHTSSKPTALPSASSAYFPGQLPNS
UniProt Q96NL6: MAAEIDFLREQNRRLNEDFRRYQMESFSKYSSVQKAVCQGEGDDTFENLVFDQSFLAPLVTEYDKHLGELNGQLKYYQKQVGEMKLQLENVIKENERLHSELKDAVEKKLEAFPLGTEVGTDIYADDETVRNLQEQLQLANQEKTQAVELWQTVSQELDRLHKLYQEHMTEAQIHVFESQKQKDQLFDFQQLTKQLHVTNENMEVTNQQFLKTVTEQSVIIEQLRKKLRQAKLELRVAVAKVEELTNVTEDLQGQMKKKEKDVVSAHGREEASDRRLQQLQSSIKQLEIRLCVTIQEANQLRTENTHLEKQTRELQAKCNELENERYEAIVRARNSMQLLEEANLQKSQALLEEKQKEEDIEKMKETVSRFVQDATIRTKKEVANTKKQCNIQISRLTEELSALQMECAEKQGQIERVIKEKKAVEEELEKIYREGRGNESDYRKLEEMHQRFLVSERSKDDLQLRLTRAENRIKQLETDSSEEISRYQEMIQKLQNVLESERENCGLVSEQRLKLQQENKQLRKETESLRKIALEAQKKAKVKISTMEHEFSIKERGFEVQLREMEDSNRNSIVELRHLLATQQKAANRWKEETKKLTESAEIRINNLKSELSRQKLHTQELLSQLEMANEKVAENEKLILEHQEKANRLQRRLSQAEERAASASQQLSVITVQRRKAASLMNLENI

This is one part of the list.

Compound in the first experiment: CC(C)(C)Cn1c(N)nc2ccc(-c3[nH]c(C(C)(C)C)nc3-c3ccc(F)cc3)nc21 [ralimetinib]
Description: log2 fold change, soluble protein after heating vs DMSO (PISA); higher = thermal stabilisation; K562 lysate, 10 uM; active = over 0.2 and 3.5 SD of the protein, either way, in both replicates (recomputed). The essentials: (§1)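 The values are log-two fold changes in thermal stability compared with solvent controls and come from duplicates. They were obtained by TMTpro 16plex LC-MS/MS, with channel sums equalised, on the supernatant after 21,000xg for 90 min. That supernatant came from crude K562 extract at 1 mg/mL protein treated with 10 μM compound for 30 min, heated for 3 min across 48°C-58°C, pooled and brought to 0.5% NP-40 at 4°C.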
For the target SCRIB (UniProt Q14160), the log2 fold change was inactive: 0.02.
Same read-out and setting: to SEC23A (UniProt Q15436) belongs inactive: 0.015; to SEPTIN9 (UniProt Q9UHD8), inactive: 0.005.
On the same count and under the same terms, the figure for SEMA4B (UniProt Q9NPR2) is inactive: -0.099; for SDF4 (UniProt Q9BRK5) it is inactive: -0.023.
Take SELENOS (UniProt Q9BQE4): the log2 fold change was inactive: -0.006.
On the same count and under the same terms, the figure for SCFD1 (UniProt Q8WVM8) is inactive: -0.001; for SEC24D isoform 2 (UniProt O94855) it is inactive: 0.01; for SELENBP1 isoform 4 (UniProt Q13228) it is inactive: -0.011.
Regarding SEC61A1 (UniProt P61619), the log2 fold change is inactive: 0.003.
With SEC24C (UniProt P53992), the log2 fold change was inactive: 0.011.
As to SAP30BP (UniProt Q9UHR5), the log2 fold change is inactive: -0.019.
Same read-out and setting: to SCRN3 (UniProt Q0VDG4) belongs inactive: -0.019; to SDSL (UniProt Q96GA7), inactive: 0.007; to SEC63 (UniProt Q9UGP8), inactive: -0.003.
Regarding SARG (UniProt Q9BW04), the log2 fold change was inactive: 0.008.
Regarding SAAL1 (UniProt Q96ER3), the log2 fold change was inactive: -0.016.
Turning to SAR1B (UniProt Q9Y6B6), the log2 fold change was inactive: 0.045.
For the target SAMSN1 (UniProt Q9NSI8), the log2 fold change was inactive: 0.007.
As for SDCCAG8 (UniProt Q86SQ7), the log2 fold change was inactive: -0.028.
Regarding SCYL1 (UniProt Q96KG9), the log2 fold change is inactive: 0.068.
For SDAD1 (UniProt Q9NVU7), the log2 fold change was inactive: 0.018.
Consider SEPTIN2 isoform 2 (UniProt Q15019), for which the log2 fold change is inactive: 0.003.
For SCAMP3 isoform 2 (UniProt O14828), the log2 fold change is inactive: 0.085.
Still for that read-out and setting: to SELENOF (UniProt O60613) belongs inactive: -0.048; to SASS6 (UniProt Q6UVJ0), inactive: -0.006; to SCFD2 (UniProt Q8WU76), inactive: 0.001.
With SEPTIN11 isoform 2 (UniProt Q9NVA2), the log2 fold change is inactive: 0.004.
The same measure, in the same setting: to SCLT1 (UniProt Q96NL6) belongs inactive: -0.043; to SCARB1 isoform 2 (UniProt Q8WTV0), inactive: 0.024.
Regarding SENP5 (UniProt Q96HI0), the log2 fold change was inactive: -0.094.
On to SDHB (UniProt P21912), for which the log2 fold change is inactive: -0.002.
As for SCML2 (UniProt Q9UQR0), the log2 fold change is inactive: 0.004.

Compound in the next experiment: CC(C)(O)CC(=O)NCCn1ccc2ncnc(Nc3ccc(Oc4cccc(C(F)(F)F)c4)c(Cl)c3)c21
The experiment is described as above. The essentials:
as §1
SCRIB (UniProt Q14160): the log2 fold change was inactive: 0.003.
SEC23A (UniProt Q15436): the log2 fold change is inactive: 0.
Take SEPTIN9 (UniProt Q9UHD8): the log2 fold change is inactive: -0.026.
As to SEMA4B (UniProt Q9NPR2), the log2 fold change is inactive: -0.021.
Take SDF4 (UniProt Q9BRK5): the log2 fold change is inactive: 0.064.
In the case of SELENOS (UniProt Q9BQE4), the log2 fold change is inactive: 0.002.
As for SCFD1 (UniProt Q8WVM8), the log2 fold change is inactive: -0.009.
As for SEC24D isoform 2 (UniProt O94855), the log2 fold change was inactive: -0.018.
On the same count and under the same terms, the figure for SELENBP1 isoform 4 (UniProt Q13228) is inactive: -0.016; for SEC61A1 (UniProt P61619) it is inactive: -0.041; for SEC24C (UniProt P53992) it is inactive: 0.002.
Turning to SAP30BP (UniProt Q9UHR5), the log2 fold change was inactive: -0.024.
Still for that read-out and setting: the figure for SCRN3 (UniProt Q0VDG4) is inactive: 0.
SDSL (UniProt Q96GA7): the log2 fold change was inactive: 0.024.
Same read-out and setting: the figure for SEC63 (UniProt Q9UGP8) is inactive: 0.003.
Same read-out and setting: the figure for SARG (UniProt Q9BW04) is inactive: 0.002.
For SAAL1 (UniProt Q96ER3), the log2 fold change was inactive: 0.047.
Still for that read-out and setting: the figure for SAR1B (UniProt Q9Y6B6) is inactive: -0.032; for SAMSN1 (UniProt Q9NSI8) it is inactive: -0.015.
Regarding SDCCAG8 (UniProt Q86SQ7), the log2 fold change was inactive: -0.017.
Take SCYL1 (UniProt Q96KG9): the log2 fold change is inactive: 0.068.
With SDAD1 (UniProt Q9NVU7), the log2 fold change is inactive: -0.027.
Take SEPTIN2 isoform 2 (UniProt Q15019): the log2 fold change is inactive: -0.016.
With SCAMP3 isoform 2 (UniProt O14828), the log2 fold change is inactive: -0.118.
On the same count and under the same terms, the figure for SELENOF (UniProt O60613) is inactive: -0.025; for SASS6 (UniProt Q6UVJ0) it is inactive: -0.056; for SCFD2 (UniProt Q8WU76) it is inactive: -0.065.
As for SEPTIN11 isoform 2 (UniProt Q9NVA2), the log2 fold change was inactive: -0.021.
The same measure, in the same setting: the figure for SCLT1 (UniProt Q96NL6) is inactive: -0.023.
In the case of SCARB1 isoform 2 (UniProt Q8WTV0), the log2 fold change was inactive: -0.038.
Same read-out and setting: to SENP5 (UniProt Q96HI0) belongs inactive: -0.006; to SDHB (UniProt P21912), inactive: 0.012.
SCML2 (UniProt Q9UQR0): the log2 fold change is inactive: 0.034.

Compound in another experiment: CC(C)C1=C2N=C(C=C(N2N=C1)NCC3=CC=CC=C3)NCCCCCCN
The description is as above. The essentials: as §1
In the case of SCRIB (UniProt Q14160), the log2 fold change was inactive: -0.046.
Consider SEC23A (UniProt Q15436), for which the log2 fold change was inactive: -0.059.
As to SEPTIN9 (UniProt Q9UHD8), the log2 fold change is inactive: -0.017.
For the target SEMA4B (UniProt Q9NPR2), the log2 fold change is inactive: 0.037.
On to SDF4 (UniProt Q9BRK5), for which the log2 fold change was inactive: 0.002.
In the case of SELENOS (UniProt Q9BQE4), the log2 fold change is inactive: 0.02.
Consider SCFD1 (UniProt Q8WVM8), for which the log2 fold change is inactive: 0.016.
SEC24D isoform 2 (UniProt O94855): the log2 fold change is inactive: 0.
With SELENBP1 isoform 4 (UniProt Q13228), the log2 fold change is inactive: -0.006.
In the case of SEC61A1 (UniProt P61619), the log2 fold change was inactive: 0.001.
As to SEC24C (UniProt P53992), the log2 fold change was inactive: 0.011.
Consider SAP30BP (UniProt Q9UHR5), for which the log2 fold change is inactive: -0.054.
On to SCRN3 (UniProt Q0VDG4), for which the log2 fold change was inactive: -0.025.
Take SDSL (UniProt Q96GA7): the log2 fold change was inactive: -0.01.
Consider SEC63 (UniProt Q9UGP8), for which the log2 fold change was inactive: -0.024.
On to SARG (UniProt Q9BW04), for which the log2 fold change was inactive: 0.023.
The same measure, in the same setting: to SAAL1 (UniProt Q96ER3) belongs inactive: 0.002.
Regarding SAR1B (UniProt Q9Y6B6), the log2 fold change was inactive: 0.093.
In the case of SAMSN1 (UniProt Q9NSI8), the log2 fold change is inactive: -0.011.
Same read-out and setting: to SDCCAG8 (UniProt Q86SQ7) belongs inactive: -0.009; to SCYL1 (UniProt Q96KG9), inactive: -0.006.
The same measure, in the same setting: the figure for SDAD1 (UniProt Q9NVU7) is inactive: -0.01.
As for SEPTIN2 isoform 2 (UniProt Q15019), the log2 fold change is inactive: -0.011.
In the case of SCAMP3 isoform 2 (UniProt O14828), the log2 fold change is inactive: -0.351.
Turning to SELENOF (UniProt O60613), the log2 fold change was inactive: -0.024.
Same read-out and setting: the figure for SASS6 (UniProt Q6UVJ0) is inactive: -0.017; for SCFD2 (UniProt Q8WU76) it is inactive: 0.005.
The same measure, in the same setting: the figure for SEPTIN11 isoform 2 (UniProt Q9NVA2) is inactive: 0.023; for SCLT1 (UniProt Q96NL6) it is inactive: 0.018; for SCARB1 isoform 2 (UniProt Q8WTV0) it is inactive: -0.015.
As for SENP5 (UniProt Q96HI0), the log2 fold change was inactive: -0.003.
Regarding SDHB (UniProt P21912), the log2 fold change is inactive: 0.003.
On the same count and under the same terms, the figure for SCML2 (UniProt Q9UQR0) is inactive: -0.011.
